Assay results published in PMC11371196.
These are yes or no findings as the source states them, for the method shown. In cells and extracts the contact can be indirect. Some results given as binding are weak or reduced against the parent protein; the word gives no strength. Where a sequence is shown, tags or fusion partners need not be part of it.

By UniProt entry, the sequences of proteins in these tests, tags left out.
UniProt Q9FX32: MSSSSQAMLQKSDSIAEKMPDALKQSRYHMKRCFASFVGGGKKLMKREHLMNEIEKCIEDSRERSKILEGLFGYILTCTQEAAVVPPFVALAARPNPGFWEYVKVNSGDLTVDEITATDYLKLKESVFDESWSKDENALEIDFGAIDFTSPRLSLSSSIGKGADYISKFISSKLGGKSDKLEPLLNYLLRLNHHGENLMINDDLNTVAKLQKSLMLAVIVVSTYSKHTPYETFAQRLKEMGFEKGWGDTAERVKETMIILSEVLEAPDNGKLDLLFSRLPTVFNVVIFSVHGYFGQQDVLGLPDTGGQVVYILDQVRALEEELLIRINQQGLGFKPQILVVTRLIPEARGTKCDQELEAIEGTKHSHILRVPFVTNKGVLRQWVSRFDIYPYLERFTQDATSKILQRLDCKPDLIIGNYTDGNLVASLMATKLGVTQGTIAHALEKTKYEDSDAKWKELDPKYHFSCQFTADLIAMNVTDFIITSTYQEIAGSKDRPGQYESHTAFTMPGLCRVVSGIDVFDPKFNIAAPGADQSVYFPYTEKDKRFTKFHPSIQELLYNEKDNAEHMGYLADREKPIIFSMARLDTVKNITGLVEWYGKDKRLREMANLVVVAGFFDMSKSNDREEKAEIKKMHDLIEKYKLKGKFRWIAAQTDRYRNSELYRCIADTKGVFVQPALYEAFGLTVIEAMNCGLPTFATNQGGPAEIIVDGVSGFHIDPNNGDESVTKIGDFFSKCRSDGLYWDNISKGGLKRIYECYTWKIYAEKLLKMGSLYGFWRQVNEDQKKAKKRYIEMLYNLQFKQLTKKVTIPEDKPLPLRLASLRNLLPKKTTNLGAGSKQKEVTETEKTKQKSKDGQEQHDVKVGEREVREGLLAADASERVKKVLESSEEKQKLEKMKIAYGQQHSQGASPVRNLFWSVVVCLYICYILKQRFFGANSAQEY

How the values were obtained:
Assay in all cases: co-IP; transient co-expression in N. benthamiana, 2 d after infiltration; lysis and washes in RIPA buffer; GFP-Trap_A at 4 °C for 1 h; immunoblot with Flag and GFP antibodies
[1] = target: T1, PDLP5-YFP (Arabidopsis thaliana) (UniProt Q8GUJ2)
T1 sequence: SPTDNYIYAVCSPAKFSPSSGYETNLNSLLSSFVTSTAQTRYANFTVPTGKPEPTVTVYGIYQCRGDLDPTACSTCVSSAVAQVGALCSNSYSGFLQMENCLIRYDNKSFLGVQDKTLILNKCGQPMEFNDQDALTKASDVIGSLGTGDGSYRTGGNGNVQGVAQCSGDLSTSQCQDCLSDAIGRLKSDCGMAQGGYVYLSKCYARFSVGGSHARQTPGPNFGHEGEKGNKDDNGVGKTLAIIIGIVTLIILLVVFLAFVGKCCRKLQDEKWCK

[2] = target: T2, PDLP6-YFP (Arabidopsis thaliana) (UniProt Q9ZU94)
T2 sequence: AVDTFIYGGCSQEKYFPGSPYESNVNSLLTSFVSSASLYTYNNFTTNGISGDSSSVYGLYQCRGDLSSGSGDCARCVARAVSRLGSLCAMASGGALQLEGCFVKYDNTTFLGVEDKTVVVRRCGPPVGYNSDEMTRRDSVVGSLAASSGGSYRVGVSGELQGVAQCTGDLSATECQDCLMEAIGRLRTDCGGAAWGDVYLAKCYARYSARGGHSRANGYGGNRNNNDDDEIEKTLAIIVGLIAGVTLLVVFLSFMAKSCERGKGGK

[3] = target: T3, PDLP7-YFP (Arabidopsis thaliana) (UniProt Q0WPN8)
T3 sequence: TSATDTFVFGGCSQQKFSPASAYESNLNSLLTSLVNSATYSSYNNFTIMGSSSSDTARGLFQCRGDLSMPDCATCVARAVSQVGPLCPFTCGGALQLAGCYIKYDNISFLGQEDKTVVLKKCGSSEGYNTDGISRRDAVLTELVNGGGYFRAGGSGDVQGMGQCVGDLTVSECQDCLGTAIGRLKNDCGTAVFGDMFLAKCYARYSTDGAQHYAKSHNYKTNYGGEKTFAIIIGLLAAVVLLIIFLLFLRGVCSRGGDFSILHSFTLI

binding [1]: binds
binding [2]: binds
binding [3]: no binding
Substance: SUS6-HF (from UniProt Q9FX32 1-942) (enzyme)
